Experimental data taken from patent US8309739B2, “Chemical compounds” (Syngenta Limited, priority 2005, dated 2012).
Some results were stated once for a whole list of compounds, not compound by compound.

Columns and labels:
Assay type in all cases: in vivo
[1] = system: Heliothis virescens (Tobacco Budworm); assay: Heliothis virescens egg/larva test on artificial diet in 24-well microtiter plate; conditions: 200 ppm by pipetting on eggs (0-24 h old) on artificial diet; 4 days; egg mortality, larval mortality, growth regulation
From the text: Heliothis virescens (Tobacco Budworm):

[2] = system: Myzus persicae (Green Peach Aphid); assay: Myzus persicae test on sprayed sunflower leaf discs; conditions: sunflower leaf discs sprayed at 200/50/12.5 ppm; aphid population of mixed ages; 6 DAT; mortality
[3] = system: Tetranychus urticae (Two-Spotted Spider Mite); assay: Tetranychus urticae test on sprayed bean leaf discs; conditions: bean leaf discs sprayed at 200/50/12.5 ppm; mite populations of mixed ages; 8 days; egg, larval and adult mortality
[4] = system: Myzus persicae (Green Peach Aphid); assay: Myzus persicae test, roots of infested pea seedlings placed in test solution; conditions: roots of infested pea seedlings in test solutions of 24 ppm; 6 days; mortality
From the text: Myzus persicae (Green Peach Aphid):
Roots of pea seedlings, infested with an aphid population of mixed ages, were placed directly in the test solutions of 24 ppm. 6 days after introduction, samples were checked for mortality.

SMILES | control of Heliothis virescens [1] | control of Myzus persicae [2] | control of Tetranychus urticae [3] | control of Myzus persicae [4]
CCON=C1CC(NC2=NCCS2)c2cc(F)cc(F)c21 (stereo not shown) [Compound 9.019] | at least 80% | – | – | –
CC1Cc2ccccc2C1NC1=NCCS1 (mixture of isomers) [Compound 2.032] | at least 80% | at least 80% | – | –
OC1Cc2ccccc2C1NC1=NCCS1 (stereo not shown) [Compound 6.032] | at least 80% | at least 80% | at least 80% | –
Clc1cc(Cl)c2c(c1)C(NC1=NCCS1)CO2 (stereo not shown) [Compound 6.038] | at least 80% | – | – | –
Cc1noc(C)c1C(=O)N1CCSC1=NC1CCc2ccccc21 (stereo not shown) [Compound 10.017] | at least 80% | – | – | –
C=C1CC(NC2=NCCS2)c2cc(F)cc(F)c21 (stereo not shown) [Compound 9.020] | at least 80% | at least 80% | – | –
Fc1cc(F)c2c(c1)C(NC1=NCCS1)CC2OC(c1ccccc1)(c1ccccc1)C(F)(F)F (stereo not shown) [Compound 9.001] | – | at least 80% | – | –
ON(C1=NCCS1)C1CCc2ccccc21 (stereo not shown) [Compound 7.007] | – | at least 80% | – | –
CC(=O)N1CCSC1=NC1CCc2c(C)cccc21 (stereo not shown) [Compound 8.031] | at least 80% | at least 80% | at least 80% | –
C=C(C)OC(=O)N1CCSC1=NC1CCc2ccccc21 (stereo not shown) [Compound 10.019] | – | at least 80% | – | –
Cc1cccc2c1CCC2NC1=NCCS1 (stereo not shown) [Compound 2.006, (4,5-Dihydro-thiazol-2-yl)-(4-methyl-indan-1-yl)-amine] | – | at least 80% | at least 80% | –
N#CN1CCSC1=NC1CCc2c(F)cccc21 (stereo not shown) [Compound 8.018] | at least 80% | at least 80% | at least 80% | –
O=C(NN=C1CC(NC2=NCCS2)c2cc(F)cc(F)c21)OCC(Cl)(Cl)Cl (stereo not shown) [Compound 9.018] | at least 80% | – | – | –
CN(C)C(=O)N1CCSC1=NC1CCc2ccccc21 (stereo not shown) [Compound 8.033] | at least 80% | – | – | –
CC1CC(NC2=NCCS2)c2ccccc21 (mixture of isomers) [Compound 6.020] | – | at least 80% | – | –
Cc1cc(C(=O)N2CCSC2=NC2CCc3ccccc32)n(C)n1 (stereo not shown) [Compound 10.002] | – | at least 80% | – | at least 80%
O=C(c1ccco1)N1CCSC1=NC1CCc2ccccc21 (stereo not shown) [Compound 10.009] | at least 80% | – | – | at least 80%
c1ccc2c(c1)C1CC1C2NC1=NCCS1 (stereo not shown) [Compound 2.066] | – | at least 80% | at least 80% | at least 80%

SMILES | control of Heliothis virescens [1] | control of Myzus persicae [2] | control of Tetranychus urticae [3] | control of Myzus persicae [4]
Cc1cc(C)c2c(c1)C(NC1=NCCS1)CCC2 (stereo not shown) [Compound 1.007] | at least 80% | – | – | –
N#CN1CCSC1=NC1CCc2c1cccc2[N+](=O)[O-] (stereo not shown) [Compound 8.027] | – | – | at least 80% | –
CN(C)C(=O)N1CCSC1=NC1CCc2c(F)cccc21 (stereo not shown) [Compound 8.034] | at least 80% | – | – | –
N#CN1CCSC1=NC1CCc2c(I)cccc21 (stereo not shown) [Compound 8.030] | – | at least 80% | – | –
c1ccc2c(c1)CCC2NC1=NCCS1 (stereo not shown) [Compound 2.001] | at least 80% | – | – | at least 80%
Cc1cc(C(=O)N2CCSC2=NC2CCc3ccccc32)c(C)o1 (stereo not shown) [Compound 10.001] | at least 80% | – | – | –
N#CN1CCSC1=NC1CCc2c(C(F)F)cccc21 (stereo not shown) [Compound 8.032] | – | at least 80% | at least 80% | –
O=C(C1CC1)N1CCSC1=NC1CCc2ccccc21 (stereo not shown) [Compound 10.013] | at least 80% | at least 80% | – | –
O=C(Oc1ccccc1)N1CCS/C1=N\C1CCc2ccccc21 (stereo not shown) [Compound 10.012] | – | at least 80% | – | –
CC(=O)N1CCSC1=NC1CCc2c(F)cccc21 (stereo not shown) [Compound 8.025] | at least 80% | – | at least 80% | at least 80%
Cc1cccc2c1CCC2N=C1SCCN1C#N (stereo not shown) [Compound 8.026] | – | – | at least 80% | –
CCOC(=O)CC(=O)N1CCSC1=NC1CCc2ccccc21 (stereo not shown) [Compound 10.021] | – | at least 80% | – | –
COC(=O)C1Cc2ccccc2C1NC1=NCCS1 (stereo not shown) [Compound 6.026] | at least 80% | – | – | –
O=C(Cc1cccs1)N1CCSC1=NC1CCc2ccccc21 (stereo not shown) [Compound 10.022] | at least 80% | at least 80% | – | –
COCC1Cc2ccccc2C1NC1=NCCS1 (stereo not shown) [Compound 12.012] | at least 80% | – | – | –
CC(C)(C)OC(=O)COCC1Cc2ccccc2C1NC1=NCCS1 (stereo not shown) [Compound 12.017] | at least 80% | – | – | –
OCC1Cc2ccccc2C1NC1=NCCS1 (stereo not shown) [Compound 6.027] | at least 80% | – | – | –
CC1CCC(NC2=NCCS2)c2ccccc21 (stereo not shown) [Compound 1.012] | – | at least 80% | – | –
